Laboratory results: PubChem BioAssay AID2685 (National Center for Advancing Translational Sciences (NCATS), 2010)
The list shows a part of the results. Further columns of the screen follow, without active or inactive calls. Compounds called inactive in the main read-out are mostly missing here. Words in brackets tell the shape of the fitted curve; partial curves, single points and poor fits give uncertain potencies.

Assay: qHTS Assay for Lipid Storage Modulators in Drosophila S3 Cells;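 for cell number change: cells counted by Cell Tracker Red CMTPX staining in the red channel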
Conditions: BODIPY lipid droplet fluorescence, 18-24 h; for cell number change: measured here: cell count max response, cells fed with added oleic acid
Method in brief: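 Drosophila S3 cells loaded with oleic acid (400 uM, as added) and compounds at several concentrations; lipid droplets imaged by 488-nm laser-scanning cytometry, 500–530 nm intensity and object ratio to cell channel. Percent activity normalized to 20 uM Triacsin C.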

[1] = measured here: cell number channel AC50, cells fed with added oleic acid
[2] = measured here: lipid fluorescence (Fed channel) AC50, cells fed with added oleic acid

Row | SMILES | cell number change [%] | AC50 [1] | AC50 [2]
1 | Cc1cc(C)c2nc(-c3ccccn3)cc(C(=O)NCc3ccco3)c2c1 | -35.5 | 13 µM [falling, partial curve, poor fit] | 0.517 µM [rising, full curve]
2 | CCOC(=O)NC1(C(F)(F)F)NC(=O)N(c2cccc(C(F)(F)F)c2)C1=O (stereo unspecified) | 13.8 | – | 25.9 µM [rising, single point]
3 | C=CC[n+]1c(-c2ccc(Cl)cc2Cl)csc1Nc1c(C)n(C)n(-c2ccccc2)c1=O | -6.99 | – | –
4 | COc1ccc(CN(C)C2CCCCC2)cc1 | 1.18 | – | 29.1 µM [falling, single point]
5 | CCC(=O)N(C)CCc1cc2c(c(OC)c1/C=N/NS(=O)(=O)c1ccc(C)cc1)OCO2 | -3.63 | – | 0.291 µM [rising, partial curve, poor fit]
6 | COCCOCC(O)CN1CCN(c2ccc(C)cc2)CC1 (stereo unspecified) | -1.21 | – | –
7 | CC(C)CCNC(=O)NC(=O)COC(=O)/C=C/c1cccc([N+](=O)[O-])c1 | – | 0.082 µM [rising, partial curve, poor fit] | –
8 | CC(C)CCN1CCN(Cc2ccc(C#CCCO)cc2)CC1CCO (stereo unspecified) | -9.41 | – | 29.1 µM [falling, single point]
9 | CN(CC(=O)Nc1ccc(F)c(F)c1F)C(=O)CN1C(=O)C2CCCCC2C1=O (stereo unspecified) | 12 | – | –
10 | COCCN(C(=O)COC(=O)Cc1coc2cc(C)ccc12)c1c(N)n(Cc2ccccc2)c(=O)[nH]c1=O | – | – | 23.1 µM [rising, partial curve]
11 | CCn1c(NC(=O)C(C)C)c2ccccc2nc1=O | -20.4 | 0.631 µM [falling, full curve, poor fit] | 10 µM [falling, partial curve, poor fit]
12 | CCOC(=O)N/N=C/c1ccc(F)cc1F | 81.7 | 25.9 µM [rising, single point] | 29.1 µM [rising, single point]
13 | Cn1cc(C(=O)c2ccc(Cl)cc2Cl)cc1C(=O)N/N=C(\N)COc1ccc(F)cc1 | 37.9 | 1.3 µM [rising, full curve] | –
14 | COc1ccc(C)cc1NS(=O)(=O)c1ccc(Cl)nc1 | 9.52 | – | 29.1 µM [rising, single point]
15 | O=C(CNS(=O)(=O)c1ccccc1)Nc1cccc([N+](=O)[O-])c1 | 90.5 | 6.51 µM [falling, single point] | 6.51 µM [falling, single point]
16 | O=C(Nc1nnc(SCCN2CCOCC2)s1)C1CC(=O)N(c2ccc(F)cc2)C1 (stereo unspecified) | 18.1 | 2.91 µM [rising, partial curve] | 29.1 µM [rising, single point]
17 | O=C(CCn1c(=O)[nH]c2ccsc2c1=O)NCc1ccc(F)cc1 | -25.4 | – | –
18 | CN(CC(=O)NC(c1ccccc1)c1ccccc1)Cc1nc2ccccc2c(=O)[nH]1 | 2.38 | – | 1.03 µM [rising, full curve, poor fit]
19 | CC1CCc2c(C(=O)NCc3cccnc3)csc2C1 (stereo unspecified) | -1.91 | – | 32.6 µM [falling, single point]
20 | CC(C)C(c1nnnn1CC1CCCO1)N1CCN(C2CCCC2)CC1 (stereo unspecified) | -2.58 | – | 7.31 µM [falling, partial curve, poor fit]

Whole records, looked up by structure:
`CN(CC(=O)Nc1ccc(F)c(F)c1F)C(=O)CN1C(=O)C2CCCCC2C1=O` (stereo unspecified) is listed as cell number change [%]: 12
`Cc1cc(C)c2nc(-c3ccccn3)cc(C(=O)NCc3ccco3)c2c1` is listed as cell number change [%]: -35.5; AC50 [1]: 13 µM [falling, partial curve, poor fit]; AC50 [2]: 0.517 µM [rising, full curve]

Continuation:

Row | SMILES | cell number change [%] | AC50 [1] | AC50 [2]
21 | CCC(C)COC(=O)C(C#N)c1nc2ccccc2nc1N1CCCCC1 (stereo unspecified) | 0.419 | – | 0.00461 µM [rising, full curve, poor fit]
22 | CC(=O)Nc1ccc2oc(C)nc2c1 | – | – | 0.82 µM [falling, single point]
23 | CCOc1ccc(/C=N/NC(=O)COc2ccccc2-c2ccccc2)cc1 | -16.1 | – | 29.1 µM [falling, single point]
24 | O=C(O)c1cc(S(=O)(=O)Nc2ccc3oc(=O)sc3c2)ccc1O | 1.78 | – | 36.6 µM [falling, partial curve, poor fit]
25 | Cc1ccc(-c2cc(C(F)F)n3ncc(C(=O)N4CCCCC4c4cccnc4)c3n2)cc1 (stereo unspecified) | 44.9 | 29.1 µM [rising, single point] | 29.1 µM [rising, single point]
26 | COc1cc([C@H]2c3c(cc(OC)c(O)c3OC)C[C@@H](CO)[C@@H]2CO[C@@H]2O[C@H](CO)[C@@H](O)[C@H](O)[C@H]2O)cc(OC)c1O | -28.2 | – | 0.206 µM [falling, full curve, poor fit]
27 | Cc1nc(SCC(N)=O)[nH]c(=O)c1Cc1ccc(OC(C)C)cc1 | -26.8 | – | –
28 | CCOC(=O)CSc1nc(N)nc(C)c1Br | 0.23 | – | –
29 | Cc1[nH]c(=O)[nH]c(=O)c1S(=O)(=O)N1CCCC(C(=O)NCc2ccco2)C1 (stereo unspecified) | -48.4 | 3.26 µM [falling, full curve, poor fit] | 5.17 µM [falling, full curve]
30 | O=C(O)CCN1C(=O)C2C3c4ccccc4C(c4ccccc43)C2C1=O (stereo unspecified) | 8.15 | – | –
31 | O=C(O)c1ccccc1NS(=O)(=O)c1cccc(-n2sc3ccccc3c2=O)c1 | 12.6 | – | –
32 | Cc1[nH]n(-c2ccccc2)c(=O)c1C1(C(F)(F)F)C(=O)N(c2ccccc2)C2=C1C(=O)CC(C)(C)C2 (stereo unspecified) | -62.5 | 3.26 µM [falling, partial curve, poor fit] | –
33 | N#C/C(=C/c1ccc(N2CCCCC2)o1)c1cccc(F)c1 | 10.1 | – | –
34 | O=c1nc2ccccc2c(NS(=O)(=O)c2ccccc2)n1-c1ccccc1 | -9.48 | – | –
35 | Cc1ccc(C(=O)N/N=C\c2cc3c(cc2Br)OCO3)cn1 | -31.7 | 9.2 µM [falling, partial curve] | –
36 | O=C(c1ccco1)N(Cc1cccc(F)c1)C1CCS(=O)(=O)C1 (stereo unspecified) | 0.597 | – | –
37 | O=C(COc1ccc([N+](=O)[O-])cc1)NNC(=O)Nc1ccc([N+](=O)[O-])cc1 | 1.62 | – | 0.398 µM [rising, partial curve, poor fit]
38 | COc1cc(CC(=O)Nc2nccs2)cc(OC)c1OC | -20.7 | – | –
39 | Cc1ccc(NC(=O)c2cnc(SCC(=O)NCC3CCCO3)n(C)c2=O)cc1C (stereo unspecified) | -37.9 | 29.1 µM [falling, single point] | 25.9 µM [falling, single point]
